Laboratory results as given in PubChem BioAssay AID493014 (National Center for Advancing Translational Sciences (NCATS), 2011).
The other results are listed elsewhere or left out. These are further read-outs of the screen, such as a control signal, another cell line or another target. No call is given for them. The list favours compounds with an active or inconclusive main result. The note in brackets gives the kind of curve behind each potency; many fits are weak.

Assay: qHTS Assay to Find Inhibitors of Chronic Active B-Cell Receptor Signaling
Conditions: ABC-DLBCL IkBa-CBG/CBR reporter, luminescence ratio (green luciferase fused to IkBa over red control in TMD8 lymphoma cells), 4 h
Procedure, shortened: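 Doxycycline induced both beetle luciferases in TMD8 lymphoma cells; IKK-driven degradation limits the IkappaBalpha-fused green signal, while red luminescence normalises for cell number and nonspecific effects. Compounds tested up to 46 uM, 4 hrs.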

[1] = measured here: CBR red luminescence, cell number
[2] = measured here: IkBa-CBG green luminescence

Row | SMILES | AC50 [1] | AC50 [2]
1 | O=C(NNC1=C(C(=O)C(F)(F)F)CCC1)c1ccccc1Cl | 5.17 µM [falling, partial curve, poor fit] | –
2 | O=C(Nc1ccccc1F)c1ccc2ncsc2c1 | 11.2 µM [falling, partial curve, poor fit] | –
3 | S=C(NCc1ccc2[nH]c3c(c2c1)CCCC3)Nc1ccccc1 | 14.6 µM [falling, partial curve] | 18.4 µM [falling, partial curve]
4 | O=C(O)/C=C\c1cn(-c2ccccc2)nc1-c1cc2ccccc2o1 | 35.5 µM [falling, single point] | –
5 | CC(=O)c1ccc(OCCCOc2cccc3cccnc23)cc1 | 5.01 µM [rising, partial curve] | –
6 | Cc1cccc(-n2ncc3c(N(C)C4CCCCC4)ncnc32)c1 | 11.2 µM [rising, partial curve, poor fit] | –
7 | COC1(OC)C(/C=C/c2ccc(Cl)cc2)C(C#N)(C#N)C1(OC)OC (centres undefined) | 5.17 µM [falling, full curve] | 6.51 µM [rising, partial curve]
8 | Cc1ccc(-c2ccc(C(=O)Nc3cccc(F)c3)o2)c2ccccc12 | 23.1 µM [falling, single point] | –
9 | O=C(CN1CCOCC1)NNC(=O)c1ccc(Cl)cc1 | 25.9 µM [rising, single point] | –
10 | Cc1ccc(C)c2[nH]c(=O)c(CN(CC3CCCO3)C(=S)NCc3ccco3)cc12 (centres undefined) | 35.5 µM [falling, single point] | –
11 | O=S(=O)(c1cccc(-c2nnc(SCc3nc4ccccc4s3)o2)c1)N1CCOCC1 | 35.5 µM [falling, single point] | –
12 | O=C(Nc1ccccc1-c1ccccc1)C1CCC1 | 0.708 µM [rising, full curve, poor fit] | –
13 | COc1ccccc1NC(=O)COc1ccc2ccccc2c1 | 15.8 µM [falling, partial curve, poor fit] | –
14 | Cc1ccc(-c2nnc(Nc3ccc(Br)cc3)c3ccccc23)cc1S(=O)(=O)N1CCOCC1 | 3.55 µM [falling, full curve] | –
15 | CSCCC(NS(=O)(=O)c1ccc(Cl)cc1)C(=O)OCC(=O)c1ccc(F)cc1 (centres undefined) | 0.13 µM [rising, full curve] | –
16 | COc1cc(-c2nc(-c3ccc(NC(=O)c4ccc(Br)o4)cc3)no2)cc(OC)c1OC | 25.9 µM [rising, partial curve, poor fit] | –
17 | c1ccc(Cc2nnc(Sc3ccccc3)c3ccccc23)cc1 | 14.1 µM [falling, partial curve] | –
18 | CSc1cccc(NC(=O)c2ccccn2)c1 | 35.5 µM [falling, single point] | –
19 | O=C(Nc1cccc(NC(=O)c2ccco2)c1)c1ccc2c(c1)OCCO2 | 7.08 µM [falling, partial curve] | –
20 | O=C(CN1C(=O)/C(=C\c2cccc(Cl)c2)Sc2ccccc21)NCCCN1CCOCC1 | 0.794 µM [falling, full curve, poor fit] | –

Laid out differently: results already given.
Row,SMILES,AC50 [1],AC50 [2]
8,Cc1ccc(-c2ccc(C(=O)Nc3cccc(F)c3)o2)c2ccccc12,"23.1 µM [falling, single point]",–
15,CSCCC(NS(=O)(=O)c1ccc(Cl)cc1)C(=O)OCC(=O)c1ccc(F)cc1 (centres undefined),"0.13 µM [rising, full curve]",–

Later entries.

Row | SMILES | AC50 [1] | AC50 [2]
21 | COc1ccc(CCNC(=O)CSc2nc3cc(Cl)ccc3o2)cc1OC | 6.51 µM [falling, single point] | –
22 | O=C(CSc1nc2ccccc2c(=O)[nH]1)c1ccc(O)cc1O | 35.5 µM [falling, single point] | –
23 | C[C@]12CC[C@@H]3c4ccc(OC(=O)c5ccccc5)cc4CC[C@H]3[C@@H]1CC[C@@H]2O | 0.00517 µM [rising, full curve, poor fit] | –
24 | Cc1cc(C)cc(OCC(=O)NC2=NCCS2)c1 | 2.91 µM [rising, single point] | 3.66 µM [falling, partial curve, poor fit]
25 | Cc1ccc(-c2nnc(N3CCCCC3)c3ccccc23)cc1S(=O)(=O)NCC1CCCO1 (centres undefined) | 29.1 µM [falling, single point] | –
26 | CN(CC(=O)Nc1ccc(Cl)c(C(F)(F)F)c1)C(=O)COC(=O)C1CC2CCCC(C1)C2=O (centres undefined) | 0.13 µM [rising, full curve, poor fit] | –
27 | O=C(NNc1nc2ccccc2o1)c1ccccc1 | 3.98 µM [falling, partial curve, poor fit] | –
28 | CC1(C)C(=O)N(OCc2ccccc2)C(C)(C)C(=O)N1OCc1ccccc1 | 0.103 µM [falling, full curve, poor fit] | –
29 | Cn1ccnc1Sc1ccc(/C=N/NC(=O)c2ccccc2[N+](=O)[O-])cc1[N+](=O)[O-] | 10 µM [falling, partial curve, poor fit] | –
30 | COc1ccccc1-n1cnc2cc(C(=O)NCC3CCCO3)ccc21 (centres undefined) | 7.31 µM [falling, partial curve, poor fit] | –
31 | COc1cc(-c2nc(-c3ccc(Br)o3)no2)cc(OC)c1OC | 1.78 µM [rising, full curve, poor fit] | –
32 | CC(=O)N(Cc1ccc(F)cc1)C1=C(NCc2ccccc2)C(=O)c2ccccc2C1=O | 16.4 µM [falling, single point] | 20.6 µM [rising, partial curve, poor fit]
33 | COc1cc(/C=N/NC(=O)c2ccccc2O)ccc1OC(=O)CC1SC(=O)NC1=O (centres undefined) | 2.51 µM [falling, full curve] | –
34 | COc1ccc(-c2cc(=O)n3[nH]cnc3n2)cc1 | 15.8 µM [falling, single point] | –
35 | COc1cc2c(cc1OC)C(c1ccccc1F)OC(=O)C2 (centres undefined) | 9.2 µM [rising, partial curve, poor fit] | –
36 | O=C1c2cccc3c([N+](=O)[O-])ccc(c23)C(=O)N1Cc1cccnc1 | 15.8 µM [falling, single point] | –
37 | CCOC(=O)c1oc2cc(C)cc(O)c2c(=O)c1-c1csc(C)n1 | 2.59 µM [rising, single point] | –
38 | CCCc1nc2ccc(NC(C)=O)cc2c(=O)n1Cc1ccc(Cl)cc1 | 1 µM [rising, full curve] | –
39 | O=C(Nc1nccs1)c1ccc(N2C(=O)[C@@H]3[C@H](C2=O)[C@H]2C=C[C@@H]3C2)cc1 | 0.0891 µM [falling, full curve, poor fit] | 0.158 µM [rising, full curve]
